Consider 68 molecules from the supplement of paper PMC4683952.

Counter-ions that a name gives are not always drawn. Some of the results follow. No stated cut-off is given here; in the data, active = 2.5 or more and inactive = the rest. This data set is noisy: repeats of one test often differ as much as different tests do.

The test system of the assay is Lgr5 (MarsCy1-Lgr5-EGFP, U2OS). Briefly: cell-surface Lgr5 expression (SCi1 fluorescence, background-subtracted) relative to WT control (fold of WT control); higher = more Lgr5 at the plasma membrane. The following applies: U2OS MarsCy1-Lgr5-EGFP stable; treatment time: overnight; library: Prestwick; 20 µM.
On to `NCCC(=O)NCCc1c[nH]cn1` [Carcinine], for which the “cell-surface Lgr5 expression” value was inactive: 1.59.
In the case of `C[C@]12CC[C@H]3[C@@H](CCC4=CC(=O)CC[C@@]43C)[C@@H]1CC[C@@H]2C(=O)CO` [Deoxycorticosterone], the “cell-surface Lgr5 expression” value was inactive: 2.16.
`Cc1cccc(Nc2ccncc2S(=O)(=O)NC(=O)NC(C)C)c1` [Torsemide]: the “cell-surface Lgr5 expression” value was inactive: 1.32.
Turning to `CC(=O)CC(c1ccc([N+](=O)[O-])cc1)c1c(O)c2ccccc2oc1=O` (stereo not drawn) [Acenocoumarol], the “cell-surface Lgr5 expression” value is inactive: 1.26.
The result for `CCCCCCCCNC(C)C(O)c1ccc(SC(C)C)cc1` (stereo not drawn) [Suloctidil] reads inactive: 1.54; that for `CC(C)NC(=N)NC(=N)Nc1ccc(Cl)cc1` [Proguanil hydrochloride], inactive: 1.01; that for `COc1ccc2c3c1O[C@H]1C[C@@H](O)C=C[C@@]31CCN(C)C2` [Galanthamine hydrobromide], inactive: 1.64.
With `Cc1nnc(SCC2=C(C(=O)O)N3C(=O)[C@@H](NC(=O)Cn4cnnn4)[C@H]3SC2)s1` [Cefazolin sodium salt] the figure was inactive: 1.81; with `O=c1[nH]c(=O)n([C@H]2C[C@H](O)[C@@H](CO)O2)cc1C(F)(F)F` [Trifluridine], inactive: 0.948.
With `CC1(C)S[C@@H]2[C@H](NC(=O)[C@H](N)c3ccccc3)C(=O)N2[C@H]1C(=O)OC1OC(=O)c2ccccc21` (stereo partly drawn) [Talampicillin hydrochloride] the figure was inactive: 0.777.
As to `NC(=O)OCC(O)COc1ccc(Cl)cc1` (stereo not drawn) [Chlorphensin carbamate], the “cell-surface Lgr5 expression” value was inactive: 0.651.
The result for `CN1C(C(=O)Nc2ccccn2)=C(O)c2ccccc2S1(=O)=O` [Piroxicam] reads inactive: 1.36; that for `COCCOC(=O)C1=C(C)NC(C)=C(C(=O)OC(C)C)C1c1cccc([N+](=O)[O-])c1` (stereo not drawn) [Nimodipine], inactive: 1.39; that for `Oc1cc(O)c2c(c1)O[C@H](c1ccc(O)c(O)c1)[C@@H](O)C2` (racemic) [Catechin-(+,-) hydrate], inactive: 2.33.
With `Cc1ccc(C)c(OCCCC(C)(C)C(=O)O)c1` [Gemfibrozil] the figure was inactive: 1.93; with `O=C(CCCN1CCC(O)(c2ccc(Cl)cc2)CC1)c1ccc(F)cc1` [Haloperidol], inactive: 0.881.
`CNCCC=C1c2ccccc2C=Cc2ccccc21` [Norcyclobenzaprine]: the “cell-surface Lgr5 expression” value was inactive: 1.33.
Consider `NC(=O)c1ccc[n+]([C@@H]2O[C@H](COP(=O)([O-])OP(=O)(O)OC[C@H]3O[C@@H](n4cnc5c(N)ncnc54)[C@H](O)[C@@H]3O)[C@@H](O)[C@H]2O)c1` [Nadide], for which the “cell-surface Lgr5 expression” value is inactive: 1.59.
For `CC(C[N+](C)(C)C)OC(N)=O` (stereo not drawn) [Bethanechol chloride], the “cell-surface Lgr5 expression” value is inactive: 1.02.
With `COc1ccc2c(c1)C(=O)N(CCc1ccc(S(=O)(=O)NC(=O)NC3CCCCC3)cc1)C(=O)C2(C)C` [Gliquidone] the figure was inactive: 1.9; with `CN(C)CCN(Cc1ccc(Cl)cc1)c1ccccn1` [Chloropyramine hydrochloride], inactive: 2.44.
As for `COc1ccc([C@@H]2Sc3ccccc3N(CCN(C)C)C(=O)[C@@H]2OC(C)=O)cc1` [Diltiazem hydrochloride], the “cell-surface Lgr5 expression” value was inactive: 1.04.
On to `Cc1cn([C@H]2C[C@H](N=[N+]=[N-])[C@@H](CO)O2)c(=O)[nH]c1=O` [Zidovudine, AZT], for which the “cell-surface Lgr5 expression” value is inactive: 1.72.
The result for `CCCNC(C)C(=O)Nc1c(C)csc1C(=O)OC` (stereo not drawn) [Articaine hydrochloride] reads inactive: 1.33.
On to `NCCc1cc[nH]n1` [Betazole hydrochloride], for which the “cell-surface Lgr5 expression” value was inactive: 1.01.
On to `Cc1c(NC(C)C)c(=O)n(-c2ccccc2)n1C` [Isopyrin hydrochloride], for which the “cell-surface Lgr5 expression” value is inactive: 1.71.
With `Cc1cc(=O)n(-c2ccccc2)n1C` [Antipyrine] the figure was inactive: 1.15; with `Clc1ccc(COC(Cn2ccnc2)c2ccc(Cl)cc2Cl)c(Cl)c1` (stereo not drawn) [Miconazole], inactive: 0.911; with `NC12CC3CC(CC(C3)C1)C2` [Adamantamine fumarate], inactive: 1.28.
With `CN1CCN(C2=Nc3cc(Cl)ccc3Nc3ccccc32)CC1` [Clozapine] the figure was inactive: 1.22.
For `C[C@@H]1NC(=O)NC1=O` [Methylhydantoin-5-(L)], the “cell-surface Lgr5 expression” value is active: 3.53.
In the case of `CO[C@@]1(NC(=O)CSCC#N)C(=O)N2C(C(=O)O)=C(CSc3nnnn3C)CS[C@@H]21` [Cefmetazole sodium salt], the “cell-surface Lgr5 expression” value was inactive: 1.82.
The result for `C[C@@H]1[C@H](O)[C@@H](C)/C=C/C=C/C=C/C=C/C=C/C=C/C=C/[C@H](O[C@@H]2O[C@H](C)[C@@H](O)[C@H](N)[C@@H]2O)C[C@@H]2O[C@](O)(C[C@@H](O)C[C@@H](O)[C@H](O)CC[C@@H](O)C[C@@H](O)CC(=O)O[C@H]1C)C[C@H](O)[C@H]2C(=O)O` [Amphotericin B] reads inactive: -0.248; that for `CC(C)NC[C@H](O)COc1ccc(CC(N)=O)cc1` [(S)-(-)-Atenolol], inactive: 2.15.
The result for `CCC(NC(C)C)C(O)c1ccc(O)c(O)c1` (stereo not drawn) [Isoetharine mesylate salt] reads active: 2.9; that for `CCC(Cc1c(I)cc(I)c(N)c1I)C(=O)O` (stereo not drawn) [Iopanoic acid], inactive: 1.13; that for `CN1CCc2cccc3c2[C@H]1Cc1ccc(O)c(O)c1-3` [R(-) Apomorphine hydrochloride hemihydrate], inactive: 1.69.
With `O=c1cc(-c2ccc(O)c(O)c2)oc2cc(O)cc(O)c12` [Luteolin] the figure was inactive: 1.44.
With `CC(C)(C(=O)c1cccnc1)c1cccnc1` [Metyrapone], the “cell-surface Lgr5 expression” value was inactive: 2.23.
Take `CC(=O)N(O)CCCCCNC(=O)CCC(=O)N(O)CCCCCNC(=O)CCC(=O)N(O)CCCCCN` [Deferoxamine mesylate]: the “cell-surface Lgr5 expression” value was inactive: 0.116.
In the case of `CC(C)/N=c1\cc2n(-c3ccc(Cl)cc3)c3ccccc3nc-2cc1Nc1ccc(Cl)cc1` [Clofazimine], the “cell-surface Lgr5 expression” value was inactive: 1.07.
The result for `CCN[C@H]1C[C@H](C)S(=O)(=O)c2sc(S(N)(=O)=O)cc21` [Dorzolamide hydrochloride] reads inactive: 1.38.
Turning to `CC(C)(Sc1cc(C(C)(C)C)c(O)c(C(C)(C)C)c1)Sc1cc(C(C)(C)C)c(O)c(C(C)(C)C)c1` [Probucol], the “cell-surface Lgr5 expression” value was inactive: 1.39.
Take `Cn1ccnc1S` [Methimazole]: the “cell-surface Lgr5 expression” value was inactive: 1.9.
The result for `Nc1c(Br)cc(Br)cc1CN[C@H]1CC[C@H](O)CC1` [Ambroxol hydrochloride] reads inactive: 1.5; that for `COc1cc(OC)c(C(=O)CCCN2CCCC2)c(OC)c1` [Buflomedil hydrochloride], inactive: 1.94.
The result for `CC[C@@H](CC[C@@H](C)[C@H]1CC[C@H]2[C@@H]3CCC4C[C@@H](O)CC[C@]4(C)[C@H]3CC[C@]12C)C(C)C` (stereo partly drawn) [Beta-sistosterol] reads inactive: 1.22.
Regarding `CCN1C(=O)NC(c2ccccc2)C1=O` (stereo not drawn) [Ethotoin], the “cell-surface Lgr5 expression” value was inactive: 1.96.
With `CN1CCC(=C2c3ccccc3CC(=O)c3sccc32)CC1` [Ketotifen fumarate] the figure was inactive: 1.25.
For the molecule `COc1ccccc1N1CCN(CC(O)COc2cccc3ccccc23)CC1` (stereo not drawn) [Naftopidil dihydrochloride], the “cell-surface Lgr5 expression” value is inactive: 1.04.
Take `CN1CCCC(CC2c3ccccc3Sc3ccccc32)C1` (stereo not drawn) [Metixene hydrochloride]: the “cell-surface Lgr5 expression” value was inactive: 2.33.
With `COc1ccc2c(c1)N(C[C@H](C)CN(C)C)c1ccccc1S2` [Methotrimeprazine maleat salt] the figure was active: 3.17; with `CCCN(CCC)C(=O)C(CCC(=O)O)NC(=O)c1ccccc1` (stereo not drawn) [Proglumide], inactive: 0.747.
With `COc1ccc(-c2ccc(=N)n(CCCC(=O)O)n2)cc1` [Gabazine] the figure was inactive: 2.08; with `CO[C@H]1C[C@H](O[C@H]2[C@H](C)[C@@H](O[C@@H]3O[C@H](C)C[C@H](N(C)C)[C@H]3OC(C)=O)[C@@H](C)C[C@@]3(CO3)C(=O)[C@H](C)[C@@H](OC(C)=O)[C@@H](C)[C@@H](C)OC(=O)[C@@H]2C)O[C@@H](C)[C@@H]1OC(C)=O` [Troleandomycin], inactive: 1.57; with `Cc1cc(C(=O)NNCc2ccccc2)no1` [Isocarboxazid], inactive: 1.87.
Consider `CN(C)CC/C=C1\c2ccccc2CSc2ccccc21` [Dosulepin hydrochloride], for which the “cell-surface Lgr5 expression” value was inactive: 2.32.
With `CC(C)(Oc1ccc(Cl)cc1)C(=O)O` [Clofibric acid] the figure was inactive: 1.74.
With `Cn1c(=O)c2[nH]cnc2n(C)c1=O` [Aminophylline] the figure was inactive: 2.
Regarding `CN(C)CCC=C1c2ccccc2CCc2ccccc21` [Amitryptiline hydrochloride], the “cell-surface Lgr5 expression” value was inactive: 0.874.
Regarding `Cc1[nH]c(=O)c(C#N)cc1-c1ccncc1` [Milrinone], the “cell-surface Lgr5 expression” value was inactive: 0.398.
With `COc1cc(/C=C/C(=O)N2CCC=CC2=O)cc(OC)c1OC` [Piperlongumine] the figure was active: 3.21.
Turning to `CN1C(C(=O)Nc2ccccn2)=C(O)c2sccc2S1(=O)=O` [Tenoxicam], the “cell-surface Lgr5 expression” value was active: 2.73.
The result for `Cc1ncc([N+](=O)[O-])n1CC(O)CCl` (stereo not drawn) [Ornidazole] reads inactive: 1.48.
The result for `C[C@]12CC[C@H]3C(=CCc4cc(O)ccc43)[C@@H]1CCC2=O` [Equilin] reads inactive: 1.91.
Turning to `C=C[C@H]1CN2CC[C@H]1C[C@@H]2[C@@H](O)c1ccnc2ccc(OC)cc12` [Quinidine hydrochloride monohydrate], the “cell-surface Lgr5 expression” value is inactive: 1.59.
With `O=C(CCCN1CCC(O)(c2ccc(Br)cc2)CC1)c1ccc(F)cc1` [Bromperidol] the figure was inactive: 2.23; with `CO[C@@]1(NC(=O)Cc2cccs2)C(=O)N2C(C(=O)O)=C(COC(N)=O)CS[C@@H]21` [Cefoxitin sodium salt], inactive: 1.59.
